From PMC5114397
Results are given in words; binding and its absence hold for the method and conditions named. Binding seen in cells or lysates may run through a third protein. Some binding calls cover weakened binding; strength is not graded here. Where a sequence is shown, tags or fusion partners need not be part of it.

Sequences of proteins named here, by UniProt entry; tags and fusion partners are left off.
UniProt Q96QZ7: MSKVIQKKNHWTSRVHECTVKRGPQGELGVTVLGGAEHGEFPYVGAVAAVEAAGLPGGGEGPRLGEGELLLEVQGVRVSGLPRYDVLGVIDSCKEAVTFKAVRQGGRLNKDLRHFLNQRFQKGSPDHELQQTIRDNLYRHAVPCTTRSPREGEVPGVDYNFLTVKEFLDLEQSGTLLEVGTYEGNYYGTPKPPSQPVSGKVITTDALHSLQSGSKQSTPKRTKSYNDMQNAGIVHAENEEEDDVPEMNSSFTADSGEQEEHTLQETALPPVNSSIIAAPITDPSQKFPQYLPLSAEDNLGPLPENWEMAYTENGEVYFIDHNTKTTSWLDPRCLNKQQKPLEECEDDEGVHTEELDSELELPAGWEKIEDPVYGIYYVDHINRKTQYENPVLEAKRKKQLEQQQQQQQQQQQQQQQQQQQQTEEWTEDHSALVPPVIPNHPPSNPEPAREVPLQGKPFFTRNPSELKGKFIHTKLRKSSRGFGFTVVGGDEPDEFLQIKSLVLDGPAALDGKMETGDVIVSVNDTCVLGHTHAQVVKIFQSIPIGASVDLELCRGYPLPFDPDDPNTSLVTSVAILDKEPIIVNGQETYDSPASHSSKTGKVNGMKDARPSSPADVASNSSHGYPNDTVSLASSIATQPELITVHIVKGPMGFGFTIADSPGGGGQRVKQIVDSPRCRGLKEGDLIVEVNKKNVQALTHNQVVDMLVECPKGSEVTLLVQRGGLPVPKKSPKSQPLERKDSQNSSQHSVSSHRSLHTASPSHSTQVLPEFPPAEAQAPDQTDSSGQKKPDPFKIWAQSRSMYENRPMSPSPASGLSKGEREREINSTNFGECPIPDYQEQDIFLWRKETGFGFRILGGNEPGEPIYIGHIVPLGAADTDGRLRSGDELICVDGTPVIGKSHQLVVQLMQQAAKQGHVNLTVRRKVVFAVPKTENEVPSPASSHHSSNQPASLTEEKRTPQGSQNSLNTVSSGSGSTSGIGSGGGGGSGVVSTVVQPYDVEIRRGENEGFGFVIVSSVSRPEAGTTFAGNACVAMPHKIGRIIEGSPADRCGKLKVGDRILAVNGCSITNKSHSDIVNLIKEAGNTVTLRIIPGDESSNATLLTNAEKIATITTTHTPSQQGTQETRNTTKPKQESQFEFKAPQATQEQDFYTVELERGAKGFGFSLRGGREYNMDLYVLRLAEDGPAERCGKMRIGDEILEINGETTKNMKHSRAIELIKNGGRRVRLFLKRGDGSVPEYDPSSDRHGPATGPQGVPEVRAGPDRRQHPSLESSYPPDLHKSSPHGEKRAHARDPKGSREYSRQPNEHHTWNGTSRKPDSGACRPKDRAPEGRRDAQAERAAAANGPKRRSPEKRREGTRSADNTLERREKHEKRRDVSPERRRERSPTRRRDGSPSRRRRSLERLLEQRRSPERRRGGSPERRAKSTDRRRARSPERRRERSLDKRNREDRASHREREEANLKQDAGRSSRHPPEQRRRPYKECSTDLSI

Target: Myc-MAGI-1 (membrane-associated guanylate kinase 1) (UniProt Q96QZ7)
Assay: co-IP; 293T cells doubly transfected with a Myc-tagged bait and a FLAG-tagged prey; total cellular lysates incubated with Myc beads overnight at 4 °C, beads washed three times and boiled; Western blot with anti-FLAG M2

B1: FLAG-tagged nephrin (protein, UniProt O60500 23-1241)
chain: QLAIPASVPRGFWALPENLTVVEGASVELRCGVSTPGSAVQWAKDGLLLGPDPRIPGFPRYRLEGDPARGEFHLHIEACDLSDDAEYECQVGRSEMGPELVSPRVILSILVPPKLLLLTPEAGTMVTWVAGQEYVVNCVSGDAKPAPDITILLSGQTISDISANVNEGSQQKLFTVEATARVTPRSSDNRQLLVCEASSPALEAPIKASFTVNVLFPPGPPVIEWPGLDEGHVRAGQSLELPCVARGGNPLATLQWLKNGQPVSTAWGTEHTQAVARSVLVMTVRPEDHGAQLSCEAHNSVSAGTQEHGITLQVTFPPSAIIILGSASQTENKNVTLSCVSKSSRPRVLLRWWLGWRQLLPMEETVMDGLHGGHISMSNLTFLARREDNGLTLTCEAFSEAFTKETFKKSLILNVKYPAQKLWIEGPPEGQKLRAGTRVRLVCLAIGGNPEPSLMWYKDSRTVTESRLPQESRRVHLGSVEKSGSTFSRELVLVTGPSDNQAKFTCKAGQLSASTQLAVQFPPTNVTILANASALRPGDALNLTCVSVSSNPPVNLSWDKEGERLEGVAAPPRRAPFKGSAAARSVLLQVSSRDHGQRVTCRAHSAELRETVSSFYRLNVLYRPEFLGEQVLVVTAVEQGEALLPVSVSANPAPEAFNWTFRGYRLSPAGGPRHRILSSGALHLWNVTRADDGLYQLHCQNSEGTAEARLRLDVHYAPTIRALQDPTEVNVGGSVDIVCTVDANPILPGMFNWERLGEDEEDQSLDDMEKISRGPTGRLRIHHAKLAQAGAYQCIVDNGVAPPARRLLRLVVRFAPQVEHPTPLTKVAAAGDSTSSATLHCRARGVPNIVFTWTKNGVPLDLQDPRYTEHTYHQGGVHSSLLTIANVSAAQDYALFTCTATNALGSDQTNIQLVSISRPDPPSGLKVVSLTPHSVGLEWKPGFDGGLPQRFCIRYEALGTPGFHYVDVVPPQATTFTLTGLQPSTRYRVWLLASNALGDSGLADKGTQLPITTPGLHQPSGEPEDQLPTEPPSGPSGLPLLPVLFALGGLLLLSNASCVGGVLWQRRLRRLAEGISEKTEAGSEEDRVRNEYEESQWTGERDTQSSTVSTTEAEPYYRSLRDFSPQLPPTQEEVSYSRGFTGEDEDMAFPGHLYDEVERTYPPSGAWGPLYDEVQMGPWDLHWPEDTYQDPRGIYDQVAGDLDTLEPDSLPFELRGHLV
binding: binds

B2: FLAG-tagged neph1 (protein, UniProt Q96J84 17-757)
chain: QGTQTRFSQEPADQTVVAGQRAVLPCVLLNYSGIVQWTKDGLALGMGQGLKAWPRYRVVGSADAGQYNLEITDAELSDDASYECQATEAALRSRRAKLTVLIPPEDTRIDGGPVILLQAGTPHNLTCRAFNAKPAATIIWFRDGTQQEGAVASTELLKDGKRETTVSQLLINPTDLDIGRVFTCRSMNEAIPSGKETSIELDVHHPPTVTLSIEPQTVQEGERVVFTCQATANPEILGYRWAKGGFLIEDAHESRYETNVDYSFFTEPVSCEVHNKVGSTNVSTLVNVHFAPRIVVDPKPTTTDIGSDVTLTCVWVGNPPLTLTWTKKDSNMVLSNSNQLLLKSVTQADAGTYTCRAIVPRIGVAEREVPLYVNGPPIISSEAVQYAVRGDGGKVECFIGSTPPPDRIAWAWKENFLEVGTLERYTVERTNSGSGVLSTLTINNVMEADFQTHYNCTAWNSFGPGTAIIQLEEREVLPVGIIAGATIGASILLIFFFIALVFFLYRRRKGSRKDVTLRKLDIKVETVNREPLTMHSDREDDTASVSTATRVMKAIYSSFKDDVDLKQDLRCDTIDTREEYEMKDPTNGYYNVRAHEDRPSSRAVLYADYRAPGPARFDGRPSSRLSHSSGYAQLNTYSRGPASDYGPEPTPPGPAAPAGTDTTSQLSYENYEKFNSHPFPGAAGYPTYRLGYPQAPPSGLERTPYEAYDPIGKYATATRFSYTSQHSDYGQRFQQRMQTHV
binding: binds
